PubChem BioAssay AID1259269 – Sanger Institute, 2017

Assay: 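Retest knock-downs that hurt colorectal cancer cells more once an anchor drug is added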 (follow-up of hits)
Cells: HCC2998 human colorectal cancer cells
Reagents: single siRNA against human genes
Conditions: anchor drug BYL719 1 µM, cetuximab 5 µg/ml or trametinib 10 nM; DMSO vehicle as comparison arm
Measured: 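Survival versus non-targeting control siRNA, replicate means, under DMSO or drug (BYL719 1 µM, cetuximab 5 µg/ml, trametinib 10 nM) and a drug synergy score, higher meaning stronger synthetic lethality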
Scale: synergy score with BYL719 and synergy score with cetuximab and synergy score with trametinib: higher = stronger synthetic lethal effect with the drug; viability with DMSO: higher = more cells survive the knock-down; viability with trametinib: higher = more cells survive knock-down plus drug
Active means: 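Active if the synergy score exceeds 0.10 for at least one of BYL719, cetuximab or trametinib; otherwise inactive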
Calls: active = synergy with at least one drug; inactive = no synergy with any drug
The whole screen tested 160 reagents; shown is an unselected part. 108 of all reagents (68%) count as active. 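Viability cannot exceed 1; how synergy scores were computed is not described.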 Unmarked entries are inactive. The numbers tell different reagents against one gene apart. Viability is capped at 1. Not stated in the record: the amount of reagent, the time to read-out.

Target gene,reagent no.,synergy score with BYL719,synergy score with cetuximab,synergy score with trametinib,viability with DMSO (fraction of control),viability with trametinib (fraction of control)
"GUCY2D (guanylate cyclase 2D, retinal)",1,0.00337 (active),0,0.312,1,0.25
"GUCY2D (guanylate cyclase 2D, retinal)",2,-0.147 (active),-0.219,0.202,0.481,0.0684
"GUCY2D (guanylate cyclase 2D, retinal)",3,-0.00303,0.0346,0.0186,0.62,0.33
"GUCY2D (guanylate cyclase 2D, retinal)",4,0.198 (active),0.193,0.147,0.94,0.381
CHD4 (chromodomain helicase DNA binding protein 4),1,0.0578,-0.0417,-0.00317,0.205,0.118
CHD4 (chromodomain helicase DNA binding protein 4),2,0.0833,0.0954,0.0399,0.541,0.264
CHD4 (chromodomain helicase DNA binding protein 4),3,0.225 (active),0.104,0.171,0.903,0.336
CHD4 (chromodomain helicase DNA binding protein 4),4,-0.165,-0.0758,-0.0233,0.425,0.262
SYK (spleen associated tyrosine kinase),1,-0.0126,0.0839,0.0626,0.86,0.42
SYK (spleen associated tyrosine kinase),2,-0.475,-0.262,0.0847,0.594,0.249
SYK (spleen associated tyrosine kinase),3,0.252 (active),-0.0949,0.353,0.817,0.106
SYK (spleen associated tyrosine kinase),4,-0.116 (active),0,0.182,1,0.379
IKBKB (inhibitor of nuclear factor kappa B kinase subunit beta),1,-0.0659 (active),-0.00298,0.123,0.432,0.12
IKBKB (inhibitor of nuclear factor kappa B kinase subunit beta),2,-0.0243 (active),0.368,0.191,0.763,0.237
IKBKB (inhibitor of nuclear factor kappa B kinase subunit beta),3,-0.199 (active),0.0252,0.137,0.881,0.358
IKBKB (inhibitor of nuclear factor kappa B kinase subunit beta),4,-0.473,-0.244,-0.0454,0.391,0.265
CDK6 (cyclin dependent kinase 6),1,-0.00066 (active),0,0.154,1,0.407
CDK6 (cyclin dependent kinase 6),2,-0.07,0.0596,-0.00802,0.203,0.122
CDK6 (cyclin dependent kinase 6),3,-0.116 (active),0,0.285,1,0.276
CDK6 (cyclin dependent kinase 6),4,-0.145 (active),0.377,0.378,0.938,0.149
"PIM1 (Pim-1 proto-oncogene, serine/threonine kinase)",1,-0.121 (active),0.114,0.12,0.444,0.129
"PIM1 (Pim-1 proto-oncogene, serine/threonine kinase)",2,0.0558 (active),0.0801,0.239,0.658,0.13
"PIM1 (Pim-1 proto-oncogene, serine/threonine kinase)",3,-0.0043,0,0.0834,1,0.478
"PIM1 (Pim-1 proto-oncogene, serine/threonine kinase)",4,0.0142,-0.28,-0.00432,0.655,0.372

4 entries from above, reformatted:
Target gene | reagent no. | synergy score with BYL719 | synergy score with cetuximab | synergy score with trametinib | viability with DMSO (fraction of control) | viability with trametinib (fraction of control)
CDK6 (cyclin dependent kinase 6) | 3 | -0.116 (active) | 0 | 0.285 | 1 | 0.276
CDK6 (cyclin dependent kinase 6) | 4 | -0.145 (active) | 0.377 | 0.378 | 0.938 | 0.149
PIM1 (Pim-1 proto-oncogene, serine/threonine kinase) | 1 | -0.121 (active) | 0.114 | 0.12 | 0.444 | 0.129
PIM1 (Pim-1 proto-oncogene, serine/threonine kinase) | 2 | 0.0558 (active) | 0.0801 | 0.239 | 0.658 | 0.13

Additional records:
Target gene,reagent no.,synergy score with BYL719,synergy score with cetuximab,synergy score with trametinib,viability with DMSO (fraction of control),viability with trametinib (fraction of control)
AK2 (adenylate kinase 2),1,-0.501,0.0117,0.0447,0.565,0.273
AK2 (adenylate kinase 2),2,-0.235 (active),0.283,0.354,0.865,0.132
AK2 (adenylate kinase 2),3,-0.375,-0.239,0.0138,0.708,0.383
AK2 (adenylate kinase 2),4,-0.468,0.0225,0.0814,0.512,0.206
EPHA6 (EPH receptor A6),1,0.0452 (active),0.222,0.241,0.884,0.255
EPHA6 (EPH receptor A6),2,-0.191,-0.0456,-0.0197,0.142,0.0996
EPHA6 (EPH receptor A6),3,0.15 (active),0.195,0.0683,0.434,0.175
EPHA6 (EPH receptor A6),4,-0.0964 (active),0.304,0.186,0.889,0.313
MAPK4 (mitogen-activated protein kinase 4),1,-0.273,0.0528,-0.134,0.822,0.595
MAPK4 (mitogen-activated protein kinase 4),2,0.137 (active),0.0653,0.381,0.94,0.147
MAPK4 (mitogen-activated protein kinase 4),3,-0.129,-0.23,0.0925,0.685,0.292
MAPK4 (mitogen-activated protein kinase 4),4,-0.039,-0.183,0.0383,0.421,0.198
IRAK3 (interleukin 1 receptor associated kinase 3),1,-0.137,0.00929,0.0571,0.323,0.124
IRAK3 (interleukin 1 receptor associated kinase 3),2,-0.0378 (active),0.19,0.229,0.828,0.236
IRAK3 (interleukin 1 receptor associated kinase 3),3,-0.512,-0.112,-0.0489,0.44,0.296
IRAK3 (interleukin 1 receptor associated kinase 3),4,-0.232,-0.198,-0.0396,0.405,0.267
RPS6KA4 (ribosomal protein S6 kinase A4),1,-0.116 (active),0,0.147,1,0.414
RPS6KA4 (ribosomal protein S6 kinase A4),2,-0.231 (active),-0.222,0.137,0.778,0.3
RPS6KA4 (ribosomal protein S6 kinase A4),3,-0.116 (active),0,0.254,1,0.308
RPS6KA4 (ribosomal protein S6 kinase A4),4,0.00757,0.0747,0.0899,0.613,0.254
CAMK2N1 (calcium/calmodulin dependent protein kinase II inhibitor 1),1,0.112 (active),-0.166,0.205,0.771,0.228
CAMK2N1 (calcium/calmodulin dependent protein kinase II inhibitor 1),2,0.274 (active),0.0205,0.0801,0.684,0.304
CAMK2N1 (calcium/calmodulin dependent protein kinase II inhibitor 1),3,0.0577 (active),0.102,0.0992,0.502,0.183
CAMK2N1 (calcium/calmodulin dependent protein kinase II inhibitor 1),4,-0.112,0.0255,-0.0265,0.615,0.372
MPP3 (MAGUK p55 scaffold protein 3),1,-0.116 (active),0,0.173,1,0.389
MPP3 (MAGUK p55 scaffold protein 3),2,-0.0963 (active),0.204,0.31,0.958,0.228
MPP3 (MAGUK p55 scaffold protein 3),3,0.159 (active),-0.0708,0.489,0.929,0.0329
MPP3 (MAGUK p55 scaffold protein 3),4,-0.196 (active),0.0862,0.106,0.699,0.286
